According to patent US20210396758A1:
Results are given in words; binding and its absence hold for the method and conditions named. Some entries that bind do so weakly or less than the wild type. Where a sequence is shown, tags or fusion partners need not be part of it.

What was measured:
human Loricrin (human) [1] = biological target: T1, human Loricrin (human) (UniProt P23490); test: QC ELISA of the chimeric human/mouse IgG1 antibody on immobilized Loricrin; signal over background
T1 sequence: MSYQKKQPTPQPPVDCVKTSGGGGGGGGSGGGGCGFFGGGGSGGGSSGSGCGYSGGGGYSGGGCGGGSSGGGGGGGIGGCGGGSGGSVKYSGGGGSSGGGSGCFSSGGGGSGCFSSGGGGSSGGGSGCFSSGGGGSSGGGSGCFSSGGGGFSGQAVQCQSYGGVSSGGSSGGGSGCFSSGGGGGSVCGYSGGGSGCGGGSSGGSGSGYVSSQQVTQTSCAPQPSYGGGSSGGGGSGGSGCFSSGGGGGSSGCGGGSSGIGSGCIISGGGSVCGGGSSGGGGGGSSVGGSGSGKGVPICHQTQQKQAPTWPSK

human Loricrin (human) [2] = biological target: T1, human Loricrin (human); test: automated immunohistochemistry (Ventana Benchmark XT), chimeric mouse IgG1 format

B1: AbD33047 full length chimeric antibody against human Loricrin with an IgG1 mouse Fc region (antibody, V domains shown)
VH: QVQLVQSGAEVKKPGASVKVSCKASGYTFNDYYIHWVRQAPGQGLEWMGVISPNSGKTNYAQKFQGRVTMTRDTSISTAYMELSRLRSEDTAVYYCARDLYPDSSAFDIWGQGTLVTVSS
VL: DIELTQPPSVSVSPGQTASITCSGDNLGDKYAHWYQQKPGQAPVLVIYDDNERPSGIPERFSGSNSGNTATLTISGTQAEDEADYYCQSYDSGNRVFGGGTKLTVLG
Human Loricrin (human) [1]
  binding: binds
Human Loricrin (human) [2]
  binding: binds
